## Percent effect of library compounds

By UniProt entry, the sequences of proteins in these tests, tags left out. Residues count along the entry.
UniProt Q8IDJ8, 1-583: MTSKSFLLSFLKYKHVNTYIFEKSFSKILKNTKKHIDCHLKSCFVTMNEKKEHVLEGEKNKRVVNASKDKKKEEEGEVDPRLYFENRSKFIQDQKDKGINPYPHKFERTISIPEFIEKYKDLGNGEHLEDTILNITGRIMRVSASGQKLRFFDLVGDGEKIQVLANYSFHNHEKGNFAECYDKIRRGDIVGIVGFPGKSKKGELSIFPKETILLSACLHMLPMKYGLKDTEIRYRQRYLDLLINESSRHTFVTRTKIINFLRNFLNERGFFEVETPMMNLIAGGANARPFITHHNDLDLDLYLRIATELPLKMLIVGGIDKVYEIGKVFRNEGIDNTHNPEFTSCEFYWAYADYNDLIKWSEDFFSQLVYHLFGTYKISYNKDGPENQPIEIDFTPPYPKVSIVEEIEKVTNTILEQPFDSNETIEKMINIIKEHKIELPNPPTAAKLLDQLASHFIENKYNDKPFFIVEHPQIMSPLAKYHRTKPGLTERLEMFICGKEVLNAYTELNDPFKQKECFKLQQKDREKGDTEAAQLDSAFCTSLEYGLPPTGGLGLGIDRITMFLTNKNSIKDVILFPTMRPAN
UniProt P9WFT3, whole entry: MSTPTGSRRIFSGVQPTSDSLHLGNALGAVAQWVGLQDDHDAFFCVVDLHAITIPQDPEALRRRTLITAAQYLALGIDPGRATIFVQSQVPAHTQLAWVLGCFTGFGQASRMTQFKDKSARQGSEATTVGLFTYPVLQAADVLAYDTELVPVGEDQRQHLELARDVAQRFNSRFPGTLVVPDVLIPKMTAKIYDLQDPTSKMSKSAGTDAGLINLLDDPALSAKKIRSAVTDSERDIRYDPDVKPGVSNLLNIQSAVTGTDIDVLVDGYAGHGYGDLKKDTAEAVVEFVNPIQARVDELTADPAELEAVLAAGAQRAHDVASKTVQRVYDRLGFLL
UniProt P9WPC5, whole entry: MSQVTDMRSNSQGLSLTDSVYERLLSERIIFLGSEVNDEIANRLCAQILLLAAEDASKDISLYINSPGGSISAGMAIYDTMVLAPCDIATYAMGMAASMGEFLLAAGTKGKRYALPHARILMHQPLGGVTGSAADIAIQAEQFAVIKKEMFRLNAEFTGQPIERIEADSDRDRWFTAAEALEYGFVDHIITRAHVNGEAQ
UniProt P9WPC3, whole entry partner: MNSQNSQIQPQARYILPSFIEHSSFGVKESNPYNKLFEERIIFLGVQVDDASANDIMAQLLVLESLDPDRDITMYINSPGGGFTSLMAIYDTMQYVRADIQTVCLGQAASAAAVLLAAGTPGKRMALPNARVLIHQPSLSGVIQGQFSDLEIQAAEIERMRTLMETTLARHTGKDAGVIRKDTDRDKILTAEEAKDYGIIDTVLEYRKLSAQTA
UniProt Q4DA54, 1-478: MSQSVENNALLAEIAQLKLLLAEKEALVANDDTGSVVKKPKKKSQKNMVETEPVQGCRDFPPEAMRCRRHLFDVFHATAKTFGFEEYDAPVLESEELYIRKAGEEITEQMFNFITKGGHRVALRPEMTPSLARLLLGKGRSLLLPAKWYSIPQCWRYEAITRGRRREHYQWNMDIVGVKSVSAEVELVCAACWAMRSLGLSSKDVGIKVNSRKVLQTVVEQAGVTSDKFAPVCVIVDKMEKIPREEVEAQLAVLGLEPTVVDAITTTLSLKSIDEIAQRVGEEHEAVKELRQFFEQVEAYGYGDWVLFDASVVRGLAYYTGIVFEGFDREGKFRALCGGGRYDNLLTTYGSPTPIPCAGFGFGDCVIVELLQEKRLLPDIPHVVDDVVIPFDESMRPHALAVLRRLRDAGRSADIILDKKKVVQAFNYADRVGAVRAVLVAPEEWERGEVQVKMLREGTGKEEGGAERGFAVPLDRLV

Measurements from “University of Dundee, Small-Polar-MMV Screening Library” (2021), ChEMBL document CHEMBL3988442.

The filed quantity is “Percent Effect” (%).
The record does not define 0% and 100%; most values in the screen are far below 50% and negative numbers occur (in some assays of this library far below -100).
The compounds are a random part of those screened.
A dash means the value is not listed here; it may have been measured.

PfKRS1: 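Enzyme assay of the cytosolic lysyl-tRNA synthetase in 384-well plates, read by luminescence. Target: Lysine-tRNA ligase, Plasmodium falciparum 3D7 (UniProt Q8IDJ8). Tested at 30 µM. Higher reads as stronger inhibition, judged from the few compounds that gave an IC50. Size under these conditions: about 69,000 compounds, about 49 of them at 50% or above in at least one test.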
MtTrpRS: 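Tryptophan-tRNA ligase, Mycobacterium tuberculosis (UniProt P9WFT3). Enzyme assay of tryptophanyl-tRNA synthetase; the read-out is not stated. Compounds at 10 µM. Higher most likely means stronger inhibition; the record gives no direction and few retests gave an IC50. Size under these conditions: about 65,000 compounds, about 64 of them at 50% or above in at least one test.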
ClpP1P2: 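Protease assay of ClpP1P2, read by the AMC dye that it sets free. Target: ClpP1P2, Mycobacterium tuberculosis (UniProt P9WPC5 and UniProt P9WPC3). Compounds at 50 µM. Higher reads as stronger inhibition, judged from the few compounds that gave an IC50. Most other retested compounds had strongly negative values. Of about 69,000 compounds tested this way, about 10 (0.015%) reached 50% or more in at least one test.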
TcHisRS: 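Enzyme assay of histidyl-tRNA synthetase; the read-out is not stated. Target: Histidine-tRNA ligase, Trypanosoma cruzi CL Brener (UniProt Q4DA54). Concentration: 30 µM. Higher reads as stronger inhibition (inferred: compounds with an IC50 in retests scored well above the rest). About 69,000 compounds were tested under these conditions; 0.045% (about 31) showed 50% or more at least once.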

Compound | PfKRS1 | MtTrpRS | ClpP1P2 | TcHisRS
CCOCC(O)CN1CCN(C(=O)c2cnc3n[nH]c(C)c3c2)CC1 (stereo unspecified) | 3.854% | 2.632% | -1.069% | 0%
O=S1(=O)COCCN1Cc1ccc(Cl)c(Cl)c1 | 7.315% | 2.935% | 0.8784% | 4.523%
Cn1cnc2c1CCN(CC(=O)N(Cc1ccccc1F)C1CC1)C2 | 4.262% | -0.7333% | -5.477% | 7.843%
Cc1ncsc1CN1CCOC(C)(C(N)=O)C1 (stereo unspecified) | 3.836% | -6.318% | 2.38% | 6.154%
OC1(c2ccccc2F)CCN(Cc2ccccc2N2CCCC2)CC1 | 0.4005% | -0.4342% | -18.3% | 0%
CC(C)N(CCNc1nc(C2CCCC2)nc2c1cnn2C)C(C)C | -1.425% | -5.253% | -5.722% | 2.041%
C[C@@H]1CN(C(=O)CCc2nncn2C)C[C@@]1(O)C1CCC1 | 1.36% | 2.086% | -8.899% | 5.464%
Cc1cnc(CN(C)CC2CCCN2c2cccnn2)cn1 (stereo unspecified) | 1.206% | 1.016% | 21.12% | -1.887%
CCc1n[nH]c(C2CN(C(=O)c3cc4c(s3)CCC4)CCO2)n1 (stereo unspecified) | -0.6709% | -2.063% | -47.73% | 1.143%
CN1CCCC(c2nnc3n2CCN(S(=O)(=O)c2ccccc2Cl)C3)C1 (stereo unspecified) | 0.6549% | -0.2604% | 6.573% | 2.682%
CC(NC(=O)NCCCN1CCCCCC1=O)c1nncn1C (stereo unspecified) | -0.7118% | 7.025% | 0.6821% | 1.754%
CC(C)c1nnc2ccc(N3CCCC(C(=O)Nc4nccs4)C3)nn12 (stereo unspecified) | 1.843% | -3.011% | -11.51% | 1.754%
CCn1cc(CNC(=O)CCc2nnc(-c3ccc(C)s3)o2)cn1 | -4.899% | 3.667% | 1.466% | 2.646%
CC[C@@H]1N(C)CCC[C@]12CCC(=O)N2Cc1ccncc1 | -3.311% | -8.576% | -8.412% | 0.9709%
Cc1nc(CN2CC(CO)Oc3ccccc32)sc1C (stereo unspecified) | -1.972% | -3.964% | -0.1652% | -1.571%
COc1cccc(OCCN2CC[C@@](O)(C3CCOCC3)[C@H](C)C2)c1 | 3.59% | 5.548% | -5.096% | 3.03%
CCn1cc(CNCCNc2ncc(Cl)cc2Cl)cn1 | -3.265% | 5.828% | 11.2% | -3.867%
COCC(=O)Nc1ccc([C@@H](O)[C@H]2COCC(=O)N2C)cc1 | 3.17% | -6.941% | -5.667% | -0.4975%
N#Cc1cn(CCCN2CCc3ccccc32)c(=O)[nH]c1=O | 5.995% | 2.204% | 15.88% | 7.143%
O=C(c1cccc(S(=O)(=O)NCCCn2cccn2)c1)N1CCOCC1 | 0.2329% | -1.957% | -3.334% | 2.513%
NC(=O)c1cnc(NCC(=O)NCc2ccccc2)c(Cl)c1 | -0.8959% | -1.1% | 1.947% | 3.922%
CCNC(=O)[C@@H]1C[C@@H](NC(=O)c2ccc(C#N)cc2)CN1CCCSC | 1.296% | 5.83% | 21.91% | 6.03%
O[C@H]1CCN(CCCOc2ccccc2F)C[C@@]12CCCO2 | -1.458% | 22.16% | -9.654% | 5.303%
CCc1c(C(=O)N2CCN(c3ncccn3)CC2)cnn1C(C)(C)C | 7.516% | 0.2924% | 9.533% | -4.545%
CCN1CCN(C(=O)c2nc(C)n(-c3ccccc3Cl)n2)CC1 | 5.841% | -1.852% | -2.81% | 2.273%
COCCN1CCCC2(CCN(Cc3nnc(C4CC4)o3)C2)C1=O (stereo unspecified) | -1.731% | -4.606% | -2.268% | 7.2%
Cn1cccc1C(=O)N1CCCC2(CCN(CCN3CCCC3)C2=O)C1 (stereo unspecified) | -5.8% | -4.722% | -4.152% | 4.184%
CCN(C)C(=O)c1ccc(N(C)Cc2cc(-c3ccncc3)no2)nc1 | 3.062% | -5.749% | -7.568% | 1.149%
CC(C)c1cc(C(=O)N2CCCC(c3cc(=O)nc4n3CCC4)C2)no1 (stereo unspecified) | 1.939% | 2.137% | -25.09% | 0.2857%
CSCC(=O)NS(=O)(=O)c1ccc(C#N)c(C(F)(F)F)c1 | -3.039% | 0.7424% | 6.765% | 7.212%
CCOC(=O)CNC(=O)N1CCOC(CCc2ccccc2)C1 (stereo unspecified) | -0.5503% | 1.188% | -7.522% | -6.494%
Cc1ccc(N2CCC3(CC2)CCN(C2CCOC2)CC3)nn1 (stereo unspecified) | 0.6924% | -3.879% | 8.312% | 6.952%
CCOc1cc(Cl)ccc1CNC(=O)N(C)CC(C)(C)O | -0.3327% | 0.1285% | -16.39% | 1.84%
Cc1ccoc1-c1nnc(CN2CCCC(Cn3cncn3)C2)o1 (stereo unspecified) | 0.5158% | -4.529% | -5.884% | 0.7634%
CN(Cc1cccc(F)c1)C(=O)CN1CCOC(Cn2cncn2)C1 (stereo unspecified) | 0.8024% | -1.146% | -9.077% | 1.143%
Cc1ccc(O)c(CN2CCCCC2CCN2CCOCC2)c1 (stereo unspecified) | -6.934% | 0.153% | -4.227% | 1.493%
CN(CCOc1ccc(F)cc1)S(=O)(=O)N1CCOCC1 | 3.435% | -2.285% | -3.226% | 2.463%
CC(C)c1nccn1-c1cccc(C2CCCN(S(=O)(=O)N(C)C)C2)n1 (stereo unspecified) | 1.265% | - | -6.211% | 4.396%
Cc1nc(C2CCCN2C(=O)c2ccc(=O)n(C)n2)no1 (stereo unspecified) | 2.363% | 1.456% | 18.76% | 0%
O=C(O)c1csc(S(=O)(=O)Nc2cccc(OCC(F)(F)F)c2)c1 | 4.166% | 2.638% | -5.47% | -2.5%
O=C(CCN1CCSCC1c1ccccc1)N1CCOCC1 (stereo unspecified) | 1.51% | -0.6686% | 0.5383% | 4.211%
CC(c1nc(C2CC2)no1)N1CCC(NS(=O)(=O)c2cccs2)CC1 (stereo unspecified) | -1.226% | -4.563% | 8.794% | 8.824%
CC(=O)N1N=C(c2ccco2)OC1C(=O)NCCc1ccc(O)cc1 (stereo unspecified) | 2.821% | - | -3.402% | 6.818%
CCc1nc(CNc2ccc(F)cc2I)no1 | 8.59% | -2.469% | -2.424% | 5%
O=C(CNC(=O)c1cc(Cl)ccn1)Nc1nccs1 | 7.518% | -0.9372% | 1.259% | 6.061%
Cc1ccc(CNC(=O)Nc2nnc(C)s2)cn1 | 3.184% | 1.072% | 7.325% | -0.7576%
CC(C)c1noc(C(C)N2CCN(CCCN3CCCC3=O)CC2)n1 (stereo unspecified) | 0.3745% | -3.899% | -7.162% | 2.326%
C[C@@H]1CN(C2CCCCC2)CC[C@@]1(O)C1CCOCC1 | 2.355% | 2.09% | 0.5091% | 0%
CC(C)c1nc(C2CCCN(C(=O)CCCn3cccn3)C2)no1 (stereo unspecified) | 2.448% | -5.946% | 2.617% | 11.43%
CC(C)NC(=O)C1CN(C(=O)Nc2cccc(F)c2)CC12CCOCC2 (stereo unspecified) | 9.347% | 1.299% | 3.998% | 5.882%
COC(=O)c1ccc(C(=O)N2CCc3c(ncn3C3CC3)C2)cc1 | 2.286% | 2.855% | 9.997% | 7.216%
CC(CCc1cccn1C)NC(=O)Nc1cccn(C)c1=O (stereo unspecified) | 11.58% | -1.144% | -5.85% | 17.24%
Cc1cccc(CNc2n[nH]c(C)n2)c1 | 1.793% | -3.312% | 3.698% | 7.921%
CC1=C[C@@H](CN2CCC(O)CC2)[C@H](C(C)C)C[C@H]1Cc1nnc(C)o1 | -0.1238% | -4.195% | -7.148% | 3.483%
CCCNC(=O)C(C)Oc1ccc(F)cc1 (stereo unspecified) | 1.725% | -1.57% | -6.321% | 1.058%
Cn1ccnc1CNC(=O)c1ccnc(C2CCNCC2)c1 | 6.934% | -3.166% | 6.002% | 4.545%
CNc1nc(N2CCN(C)C(CCO)C2)nc2c1CCC2 (stereo unspecified) | 7.631% | -3.931% | -9.705% | 7.389%
CCOC1CCN(C(=O)NCc2ccc(CN3CCOCC3)cc2)CC1 | 1.28% | 0.6721% | -8.705% | 2.353%
CCn1cnnc1CNC(=O)C1CCCN(Cc2cccc(F)c2)C1 (stereo unspecified) | 2.922% | -2.16% | 11.13% | 5.172%
CCN(CCN1CCCCCC1)C(=O)COc1cccnc1 | 1.856% | 4.198% | -2.383% | 7.143%
CCCc1nnc(N2CCN(c3ccccc3Cl)CC2)o1 | 4.341% | 4.258% | -6.357% | 8.081%
CCOC(=O)N1[C@@H](c2ccco2)[C@@H](CO)C[C@]12CCCCNC2=O | 6.039% | - | 0.05631% | -21.35%

For reference, 7 entries once more:

{"compound": "N#Cc1cn(CCCN2CCc3ccccc32)c(=O)[nH]c1=O", "PfKRS1": 5.995, "MtTrpRS": 2.204, "ClpP1P2": 15.88, "TcHisRS": 7.143}
{"compound": "CCN(C)C(=O)c1ccc(N(C)Cc2cc(-c3ccncc3)no2)nc1", "PfKRS1": 3.062, "MtTrpRS": -5.749, "ClpP1P2": -7.568, "TcHisRS": 1.149}
{"compound": "CCn1cc(CNCCNc2ncc(Cl)cc2Cl)cn1", "PfKRS1": -3.265, "MtTrpRS": 5.828, "ClpP1P2": 11.2, "TcHisRS": -3.867}
{"compound": "CCc1n[nH]c(C2CN(C(=O)c3cc4c(s3)CCC4)CCO2)n1", "stereo": "stereo unspecified", "PfKRS1": -0.6709, "MtTrpRS": -2.063, "ClpP1P2": -47.73, "TcHisRS": 1.143}
{"compound": "Cc1cnc(CN(C)CC2CCCN2c2cccnn2)cn1", "stereo": "stereo unspecified", "PfKRS1": 1.206, "MtTrpRS": 1.016, "ClpP1P2": 21.12, "TcHisRS": -1.887}
{"compound": "CC1=C[C@@H](CN2CCC(O)CC2)[C@H](C(C)C)C[C@H]1Cc1nnc(C)o1", "PfKRS1": -0.1238, "MtTrpRS": -4.195, "ClpP1P2": -7.148, "TcHisRS": 3.483}
{"compound": "CC(=O)N1N=C(c2ccco2)OC1C(=O)NCCc1ccc(O)cc1", "stereo": "stereo unspecified", "PfKRS1": 2.821, "ClpP1P2": -3.402, "TcHisRS": 6.818}